# According to PMC5603727:
# Where a chain is given by its changes, count along the chain named. For at least one entry, the source does not settle the construct or the ends of the probe. For some of these results: Weaker means in comparison with the reference protein, sequence or condition of that experiment. For some of these results: Where a protein sequence is shown, tags need not be part of it.
# Key:
# Test in all cases: EMSA
# Conditions in all cases: tRNA competitor; EMSA: 20 mM HEPES pH 7.4, 50 mM NaCl, 1 mM MgCl2, 1 mM DTT, 1 ug/ul BSA, 2.5 ug/ul yeast tRNA, 500 pM RNA, RT 10 min or ice 20 min; recombinant protein; label: 32P in EMSA
# [1] = molecular target: T1, ROQ R260A (UniProt Q4VGL6)
# T1 sequence (looked up, limits assumed): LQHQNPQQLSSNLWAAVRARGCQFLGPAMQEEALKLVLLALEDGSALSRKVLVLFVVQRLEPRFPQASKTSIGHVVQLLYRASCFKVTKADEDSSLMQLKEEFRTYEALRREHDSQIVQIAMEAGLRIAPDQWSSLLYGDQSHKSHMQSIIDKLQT
# [2] = molecular target: T2, ROQ K220A (UniProt Q4VGL6)
# T2 sequence (looked up, limits assumed): T1 sequence (looked up, limits assumed) with K50A, A90R
# [3] = molecular target: T3, ROQ Y250A (UniProt Q4VGL6)
# T3 sequence (looked up, limits assumed): T1 sequence (looked up, limits assumed) with Y80A, A90R
# [4] = molecular target: T4, ROQ S265Y (UniProt Q4VGL6)
# T4 sequence (looked up, limits assumed): T1 sequence (looked up, limits assumed) with A90R, S95Y
# [5] = molecular target: ROQ Ser253 mutant (UniProt Q4VGL6)
# [6] = molecular target: T5, ROQ K239A (UniProt Q4VGL6)
# T5 sequence (looked up, limits assumed): T1 sequence (looked up, limits assumed) with K69A, A90R
# [7] = molecular target: T6, ROQ K259A (UniProt Q4VGL6)
# T6 sequence (looked up, limits assumed): T1 sequence (looked up, limits assumed) with K89A, A90R
sequence,measurement,setting,value
UCCACACCGUUCUAGGUGCUGG [Ox40 ADE-like SL],binding result,[1],binds more weakly
same,binding result,[2],binds more weakly
same,binding result,[3],binds more weakly
same,binding result,[4],binds more weakly
same,binding result,[5],binds
same,binding result,[6],binds more weakly
same,binding result,[7],binds more weakly
